Test results from patent US12378320B2, “Methods for treating pancreatitis” (Cold Spring Harbor Laboratory, priority 2018, dated 2025).

B1: Q6IFZ6 (protein, UniProt Q6IFZ6 1-572, looked up)
chain: MSRQFSSQSAFSSRSRRAYSSRSSSGFGGGRQALVSVSQSRRYGGDYGGGFSSRSLYSLGGSKSIFGNLVGRSASGFCQSRGPGGGFGGGIGGGIGGGRGFGGGGFGGGYGGGGRFGGGFGGAGFGFGGFGPSYPPGGIHEVTINQSLLEPLHLEVDPEIQRVKTQEREQIKTLNNKFASFIDKVRFLEQQNQVLQTKWELLQQVNTSTRTSSLEPVFEEFISQLQRQVDVLTTEQLRQNTEIRNMQDVVEDYKNKYEDEINKRTNAENDFVVLKKDVDAAFMGKSDLQSKVDTLYGEINFLKYLFDTELSQIQTHVSDTNVILSMDNNRSLDLDSIIDAVRAQYEIIAQKSKDEAEALYQTKYQELQITAGKHGDDLKNSKMEISELNRNIQRLRAEIANIKKQVEGMHGLISDAEERGERALQNAKQKLQDMEEALQQAKEDLAKLLRDYQAMLGAKLSLDVEIATYRQLLEGEESRMSGALQSQVSISVQSSQVTIGGGGGGSGSYSGSSRGGGGGGGGTGSRGGGGGGGGSSYVSSSRSATKYGSGGGSSRTQILQTSTHSSRRHVVE
modifications: full-length
B2: Q3UV17 (protein, UniProt Q3UV17 1-594, looked up)
chain: MSRQACKKSFSCGSQGFSGHSAVVSGSSRSSCVARSGAASGGACGFRSGAGSLGSHSLYSLGGSKSISISVAAGGSRAGGFSGGRSSCGSGFGSGYGGSLGGSRGMGAGFGGPSGFGGAGGFGRPGSFGPGSCPGGIQEVTINQSLLQPLNVEIDPQIGQVKAQEREQIKTLNNKFASFIDKVRFLEQQNKVLETKWELLQQQTIRSGSGPQNLEPFFESYISCLRKQLDSLLGAKGSLEGELKSMQDLVEDFKKKYEEEINRRTAAENEFVGLKKDVDGAFMNKVELQAKVDSLTDEINFLRTLYDMELSQIQSHVSDTSVVLSMDNNRCLDLDSIIAEVKAQYEDIAQKSKAEAEALYQTKLGELQTTAGRHGDDLRSTKSEIMDLNRMIQRLRAEIENVKKQNTNMQTSIAEAEQRGERALKDADTKFQDLQVALQKAKEDMARLLKEYQELMNVKLALDVEIATYRKLLEGEECRLSGEFQNAVSISVVSNVTSTSSSGSFRGTGGSNYGGDSSGRSGGSSSSSSRGSSSRGSSGSRLGSGGSISVSQQRMGFNSGGSQTSVGSSYKSGRGGSSSVQFSQTTSSSQQRSK
modifications: full-length
B3: Q3TTY5 (protein, UniProt Q3TTY5 1-707, looked up)
chain: MSCQISCRSRRGGGGGGGGGFRGFSSGSAVVSGGSRRSNTSFSCISRHGGGRGGSGGGGFGSQSLVGLGGYKSISSSVAGNSGGYGGSSFGGSSGFGGGRGFGGGQGFGGSGGFGGGSGFGGGQGFGGGSRFGGGSGFGGGGFGGGSFGGGRFGGGPGGFGGPGGFPGGGIHEVSVNQSLLQPLDVKVDPEIQNVKSQEREQIKTLNNKFASFIDKVRFLEQQNQVLRTKWELLQQLDVGSRTTNLDPIFQAYIGMLKKQVDRLSAERTSQESELNNMQDLVEDFKKKYEDEINKRTSAENDFVTIKKDVDSCYMDKTELQARLDILAQEVNFLRTLYDAELSQLQQDVTDTNVILSMDNNRNLDLDSIIAEVQNQYEMIAHKSKAESEELYHSKYEELQVTAVKHGDSLKEIKMEISELNRTIQRLQGEISHVKKQCKGVQDSIADAEQRGEHAIKDARGKLTDLEEALQQCREDLARLLRDYQELMNTKLSLDVEIATYRKLLEGEECRMSGDFSDNVSVSITSSTISSSVASKTGFGSGGQSSGGRGSYGGRGGGGGGGSTYGSGGRSSGSRGSGSGSGGGGYSSGGGSRGGSGGGYGSGGGSRGGSGGGYGSGGGSGSGGGYSSGGGSRGGSGGGGVSSGGGSRGGSSSGGGSRGGSSSGGGGYSSGGGSRGGSSSGGAGSSSEKGGSGSGEGCGSGVTFSFR
modifications: full-length
B4: Q9EPL8 (protein, UniProt Q9EPL8 1-1038, looked up)
chain: MDPNTIIEALRGTMDPALREAAERQLNEAHKSLNFVSTLLQITMSEQLDLPVRQAGVIYLKNMITQYWPDREATPGDIAPYTIPEEDRHCIRENIVEAIIHSPELIRVQLTTCIHHIIKHDYPSRWTAIVDKIGFYLQSDNSACWLGILLCLYQLVKNYEYKKPEERSPLVAAMQHFLPVLKDRFIQLLSDQSDQSVLIQKQIFKIFYALVQYTLPLELINQQNLTEWVEILKTVVNRDVPNETLQVEEDDRPELPWWKCKKWALHILARLFERYGSPGNVSKEYNEFAEVFLKAFAVGVQQVLLKVLYQYKEKQYMAPRVLQQTLNYINQGVSHALTWKNLKPHIQGIIQDVIFPLMCYTDADEELWQEDPYEYIRMKFDVFEDFISPTTAAQTLLFTACSKRKEVLQKTMGFCYQILTEPNADPRKKDGALHMIGSLAEILLKKKIYKDQMEYMLQNHVFPLFSSELGYMRARACWVLHYFCEVKFKSDQNLQTALELTRRCLIDDREMPVKVEAAIALQVLISNQEKAKEYITPFIRPVMQALLHIIRETENDDLTNVIQKMICEYSEEVTPIAVEMTQHLAMTFNQVIQTGPDEEGSDDKAVTAMGILNTIDTLLSVVEDHKEITQQLEGICLQVIGTVLQQHVLEFYEEIFSLAHSLTCQQVSPQMWQLLPLVFEVFQQDGFDYFTDMMPLLHNYVTVDTDTLLSDTKYLEMIYSMCKKVLTGVAGEDAECHAAKLLEVIILQCKGRGIDQCIPLFVEAALERLTREVKTSELRTMCLQVAIAALYYNPHLLLNTLENLRFPNNVEPVTNHFITQWLNDVDCFLGLHDRKMCVLGLCALIDMEQIPQVLNQVSGQILPAFILLFNGLKRAYACHAEHENDSDDDEDAEDDDETEELGSDEDDIDEDGQEYLEILAKQAGEDGDDEDWEEDDAEETALEGYSTIIDDEDNPVDEYQIFKAIFQTIQNRNPVWYQALTHGLNEEQRKQLQDIATLADQRRAAHESKMIEKHGGYKFSAPVVPSSFNFGGPAPGMN
modifications: full-length
B5: Q91X72 (protein, UniProt Q91X72 1-460, looked up)
chain: MARTAVALNILVLLGLCWSLAVASPLPTANGRVAEVENGTKPDSDVPEHCLDTWSFDAATMDHNGTMLFFKGEFVWRGHSGTRELISARWKNPITSVDAAFRGPDSVFLIKEDKVWVYPPEKKENGYPKLFQEEFPGIPYPPDAAVECHRGECQSEGVLFFQGNRKWFWDFATRTQKERSWSTVGNCTAALRWLERYYCFQGNKFLRFNPVTGEVPPRYPLDARDYFVSCPGRGHGRPRNGTAHGNSTHPMHSRCSPDPGLTALLSDHRGATYAFTGSHYWRLDSSRDGWHSWPIAHHWPQGPSTVDAAFSWDDKVYLIQGTQVYVFLTKGGNNLVSGYPKRLEKELGSPPGISLETIDAAFSCPGSSRLYVSSGRRLWWLDLKSGAQATWTEVSWPHEKVDGALCLDKSLGPNTCSSNGSSLYFIHGPNLYCYSSIDKLNAAKSLPQPQKVNSILGCSQ
modifications: full-length
B6: P23116 (protein, UniProt P23116 1-1344, looked up)
chain: MPAYFQRPENALKRANEFLEVGKKQPALDVLYDVMKSKKHRTWQKIHEPIMLKYLELCVDLRKSHLAKEGLYQYKNICQQVNIKSLEDVVRAYLKLAEEKTEAAKEESQQMVLDIEDLDNIQTPESVLLSAVSGEDTQDRTDRLLLTPWVKFLWESYRQCLDLLRNNSRVERLYHDIAQQAFKFCLQYTRKAEFRKLCDNLRMHLSQIQRHHNQSTAINLNNPESQSMHLETRLVQLDSAISMELWQEAFKAVEDIHGLFSLSKKPPKPQLMANYYNKVSTVFWKSGNALFHASTLHRLYHLSREMRKNLTQEEMQRMSTRVLLATLSIPITPERTDIARLLDMDGIIVEKQRRLATLLGLQAPPTRIGLINDMVRFSVLQYVVPEVKDLYNWLEVEFNPLKLCERVTKVLNWVREQPEKEPELQQYVPQLQNNTILRLLQQVAQIYQSIEFSRLTSLVPFVDAFQLERAIVDAARHCDLQVRIDHTSRTLSFGSDLNYATREDAPVGPHLQSMPSEQIRNQLTAMSSVLAKALEVIRPAHILQEKEEQHQLAVNAYLKNSRKEHQRILARRQTIEERKERLESLNIQREKEELEQREAELQKVRKAEEERLRQEAKEREKERILQEHEQIKKKTVRERLEQIKKTELGAKAFKDIDIEDLEELDPDFIMAKQVEQLEKEKKELQERLKNQEKKIDYFERAKRLEEIPLIKSAYEEQRVKDMDLWEQQEEERITTMQLEREKALEHKNRMSRMLEDRDLFVMRLKAARQSVYEEKLKQFEERLAEERHSRLEDRKRQRKEERKITYYREKEEEEQRRAEEQMLKEREERERAERAKREEELREYQERVKKLEEVERKKRQRELEIEERERRREEERRLGDDPLSRKDSRWGDRDSEGTWRKGPEADSEWRRGPPEKEWRRETRDDERPHRRDEDRLRRLGGDDEERESSLRPDDDRIPRRGLDDDRGPRRGPDEDRFSRRGTDDDRPSWRNADDDRPPRRIGDDDRGSWRHTDDDRPPRRGLDDERGSWRTADEDRGPRRGMDDDRGPRRGGADDERSSWRNADDDRGPRRGMDDDRGPRRGLDDDRGPWRNAAEDRISRRGADDDRGPWRNMDDDRVPRRGDDARPGPWRPFVKPGGWREKEKAREESWGPPRESRPSEEREWDRDKEKDRDNQDREENDKDLERDRDRERDGDREDRFRRPRDEGGWRRGPAEESSSWRDSSRRDDRDREDRRRDRDDRRDLRDLRDRRDLRDDRDRRGPPLRSEREEASSWRRTDDRKDDRTEERDPPRRVPPPALSRDREREREREGEKEKASWRAEKDRESLRRTKNETDEDGWTTVRR
modifications: full-length

System: CA19-9 modified proteins
Test: CA19-9 IP/MS (iTRAQ) of organoid conditioned media after Dox treatment
Design: species or system mouse
[1] = CA19-9 IP/MS relative abundance, A217 (genetic negative) organoid conditioned media, 0H (before treatment), IP with NS19-9, reference channel = 1
[2] = CA19-9 IP/MS relative abundance, A217 (genetic negative) organoid conditioned media, after 8 hours, IP with 5B1
[3] = CA19-9 IP/MS relative abundance, A217 (genetic negative) organoid conditioned media, after 8 hours, IP with NS19-9
[4] = CA19-9 IP/MS relative abundance, A220 (C;R^LSL;F) organoid conditioned media, 0H (before treatment), IP with 5B1
[5] = A217 (genetic negative) organoids conditioned media, after 8 hours of treatment, CA19-9 IP with 5B1, relative to 17 0H NS19
[6] = A217 (genetic negative) organoids conditioned media, after 8 hours of treatment, CA19-9 IP with NS19-9, relative to 17 0H NS19
[7] = A217 (genetic negative) organoids conditioned media, before treatment (0H), CA19-9 IP with NS19-9, relative abundance, reference channel
[8] = A220 (C;R^LSL;F) organoids conditioned media, before treatment (0H), CA19-9 IP with 5B1, relative to 17 0H NS19

Molecule	17 0H NS19 [1]	17 8H 5B1 [2]	17 8H NS19 [3]	20 0H 5B1 [4]	17 8H 5B1 [5]	17 8H NS19 [6]	17 0H NS19 [7]	20 0H 5B1 [8]
B1	1	0.85	2.003	1.282				
B2		0.725	1.383	1.003				
B3	1	0.65	2.077	1.285				
B4					2.393	0.552	1	1.635
B5					0.697	0.661	1	0.649
B6					3.66	0.436	1	3.444
